Test results as given in US20060263299A1, “Effect of substances on sexual function” (priority 2005, published 2006).
Structures can show the parent of a compound that is named as a salt. At least one structure is not confirmed: it was looked up by name or label, or the drawing left a doubt.

Test system: male Sprague-Dawley rats
Assay: Reversal of fluoxetine-induced deficits in non-contact penile erections by co-administered agents
Format: in vivo, rat
Conditions: co-administered with fluoxetine (over 14 days)

In the case of `CCCc1nn(C)c2c(=O)[nH]c(-c3cc(S(=O)(=O)N4CCN(C)CC4)ccc3OCC)nc12` [Sildenafil citrate], the “ability to reverse the effects of fluoxetine on non-contact penile erections (in words, FIG. 7)” value is reported as “reverse to effects of the fluoxetine is demonstrated”.
